From paper PMC11955804 (Chemical Science, 2025)

Test: general procedure: Fmoc solid-phase peptide synthesis; Rink Amide; Oxyma/DIC
Details: whole synthesis, 220 nm

Substance	final HPLC purity [%]
PEPTIDE1{G.H.G.N.Y.G.H.G.N.Y.G.H.G.N.Y.G.H.G.N.Y.[am]}$$$$V2.0	92
PEPTIDE1{G.H.G.F.Y.G.H.G.F.Y.G.H.G.F.Y.G.H.G.F.Y.[am]}$$$$V2.0	87
PEPTIDE1{G.H.G.A.Y.G.H.G.A.Y.G.H.G.A.Y.G.H.G.A.Y.[am]}$$$$V2.0	85
PEPTIDE1{G.H.G.I.Y.G.H.G.I.Y.G.H.G.I.Y.G.H.G.I.Y.[am]}$$$$V2.0	98

Some peptides are written in HELM: one residue between dots, names in brackets for other building blocks, links after the first $.
